Data published in paper PMC9769556.
These are yes or no findings as the source states them, for the method shown. Binding calls can cover weak binding; strength is not graded here. Tags and fused reporters may be left off the sequences shown.

Target: T1, T25-tagged DrRecA (plasmid pKNT25recA) in E. coli BTH101 (D. radiodurans) (UniProt P42443)
T1 sequence: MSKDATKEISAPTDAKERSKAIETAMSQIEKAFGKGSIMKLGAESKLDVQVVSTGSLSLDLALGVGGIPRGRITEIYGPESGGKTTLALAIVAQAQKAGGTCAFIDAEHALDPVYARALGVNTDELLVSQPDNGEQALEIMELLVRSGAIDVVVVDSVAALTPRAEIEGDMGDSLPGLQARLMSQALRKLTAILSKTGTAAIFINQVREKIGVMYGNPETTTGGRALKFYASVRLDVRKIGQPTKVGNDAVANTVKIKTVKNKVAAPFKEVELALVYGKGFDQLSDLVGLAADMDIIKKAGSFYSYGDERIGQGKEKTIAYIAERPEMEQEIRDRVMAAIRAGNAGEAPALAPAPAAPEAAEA
Assay: two-hybrid; bacterial two-hybrid (BACTH) in E. coli BTH101; T18 and T25 fusions coexpressed; blue colonies on X-Gal/IPTG plates at 30 C for 12 h and beta-galactosidase activity in solution

binding: binds
Substance: T18-tagged DrDprA (plasmid pUTdprA) in E. coli BTH101 (D. radiodurans)
